In the supplement of paper PMC10849652:
This is one part of the list.

Chains of the proteins cited; added tags and fusions are not shown. Lines headed by an entry give the natural chain unless they say otherwise; changes in a name come on top.
UniProt O75391: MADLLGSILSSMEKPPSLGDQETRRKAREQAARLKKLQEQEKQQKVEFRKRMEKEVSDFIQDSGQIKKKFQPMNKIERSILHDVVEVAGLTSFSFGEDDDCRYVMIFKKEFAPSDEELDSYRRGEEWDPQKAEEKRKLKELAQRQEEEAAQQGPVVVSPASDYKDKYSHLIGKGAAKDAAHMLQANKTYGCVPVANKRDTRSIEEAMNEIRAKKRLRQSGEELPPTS
UniProt Q15036: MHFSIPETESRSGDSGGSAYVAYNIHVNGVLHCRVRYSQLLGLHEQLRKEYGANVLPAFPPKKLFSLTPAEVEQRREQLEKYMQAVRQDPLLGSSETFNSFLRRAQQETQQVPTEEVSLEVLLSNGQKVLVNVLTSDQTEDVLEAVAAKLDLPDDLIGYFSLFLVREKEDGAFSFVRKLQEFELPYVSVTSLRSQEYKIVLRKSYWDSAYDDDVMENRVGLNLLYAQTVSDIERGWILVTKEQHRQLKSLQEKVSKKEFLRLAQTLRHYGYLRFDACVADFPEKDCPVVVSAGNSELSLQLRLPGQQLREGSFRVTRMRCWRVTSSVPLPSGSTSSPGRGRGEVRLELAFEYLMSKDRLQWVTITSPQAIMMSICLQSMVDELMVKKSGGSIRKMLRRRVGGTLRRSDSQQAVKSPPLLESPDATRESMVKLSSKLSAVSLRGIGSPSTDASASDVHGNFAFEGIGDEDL
UniProt P08047, whole entry, looked up: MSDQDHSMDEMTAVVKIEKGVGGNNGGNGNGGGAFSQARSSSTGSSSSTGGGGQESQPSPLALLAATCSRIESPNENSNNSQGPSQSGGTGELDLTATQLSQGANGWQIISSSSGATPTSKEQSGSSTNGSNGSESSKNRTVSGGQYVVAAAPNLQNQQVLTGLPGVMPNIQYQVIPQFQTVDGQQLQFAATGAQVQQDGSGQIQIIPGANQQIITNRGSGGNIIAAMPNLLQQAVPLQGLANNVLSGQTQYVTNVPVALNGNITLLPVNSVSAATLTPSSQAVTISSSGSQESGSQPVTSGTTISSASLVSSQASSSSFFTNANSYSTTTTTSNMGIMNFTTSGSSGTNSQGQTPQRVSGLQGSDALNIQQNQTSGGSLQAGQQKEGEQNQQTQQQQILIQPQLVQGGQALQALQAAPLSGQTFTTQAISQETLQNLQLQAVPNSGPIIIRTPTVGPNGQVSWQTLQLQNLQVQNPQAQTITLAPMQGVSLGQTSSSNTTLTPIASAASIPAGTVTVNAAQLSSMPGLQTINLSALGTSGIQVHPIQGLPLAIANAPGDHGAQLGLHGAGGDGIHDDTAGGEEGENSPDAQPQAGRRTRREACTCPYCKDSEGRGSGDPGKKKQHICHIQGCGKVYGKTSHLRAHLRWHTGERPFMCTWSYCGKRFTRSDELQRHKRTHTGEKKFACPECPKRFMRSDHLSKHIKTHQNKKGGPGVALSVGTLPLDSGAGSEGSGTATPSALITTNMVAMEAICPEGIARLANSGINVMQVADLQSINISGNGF
UniProt O14508, whole entry, looked up: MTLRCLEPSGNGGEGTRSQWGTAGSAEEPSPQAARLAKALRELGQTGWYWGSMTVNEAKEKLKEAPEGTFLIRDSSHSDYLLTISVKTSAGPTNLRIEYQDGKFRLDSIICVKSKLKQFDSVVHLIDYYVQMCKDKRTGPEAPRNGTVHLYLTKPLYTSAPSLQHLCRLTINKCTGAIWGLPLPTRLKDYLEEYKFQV
UniProt O60641: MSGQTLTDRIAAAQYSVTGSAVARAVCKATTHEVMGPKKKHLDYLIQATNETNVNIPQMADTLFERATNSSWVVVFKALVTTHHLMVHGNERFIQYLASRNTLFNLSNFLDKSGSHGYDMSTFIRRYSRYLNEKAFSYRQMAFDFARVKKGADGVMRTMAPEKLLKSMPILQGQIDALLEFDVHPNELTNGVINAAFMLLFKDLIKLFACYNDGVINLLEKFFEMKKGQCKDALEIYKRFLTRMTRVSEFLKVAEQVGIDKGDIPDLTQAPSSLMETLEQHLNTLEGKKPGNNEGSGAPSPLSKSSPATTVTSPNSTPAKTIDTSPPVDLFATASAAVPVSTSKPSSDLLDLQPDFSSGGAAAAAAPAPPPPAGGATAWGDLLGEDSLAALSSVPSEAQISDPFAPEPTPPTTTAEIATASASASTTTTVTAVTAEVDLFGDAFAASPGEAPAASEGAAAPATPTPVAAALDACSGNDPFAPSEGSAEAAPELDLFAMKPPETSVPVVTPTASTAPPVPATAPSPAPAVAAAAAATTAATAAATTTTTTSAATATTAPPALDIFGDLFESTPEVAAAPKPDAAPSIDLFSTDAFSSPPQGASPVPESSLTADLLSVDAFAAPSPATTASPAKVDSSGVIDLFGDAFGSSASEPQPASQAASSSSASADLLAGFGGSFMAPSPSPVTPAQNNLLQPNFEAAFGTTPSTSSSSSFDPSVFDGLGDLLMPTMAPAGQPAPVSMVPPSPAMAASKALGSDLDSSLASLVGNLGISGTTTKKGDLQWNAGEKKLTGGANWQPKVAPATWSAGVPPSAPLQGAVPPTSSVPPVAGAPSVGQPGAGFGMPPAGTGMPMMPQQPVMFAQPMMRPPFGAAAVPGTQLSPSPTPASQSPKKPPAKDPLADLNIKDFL
UniProt Q5VWJ9: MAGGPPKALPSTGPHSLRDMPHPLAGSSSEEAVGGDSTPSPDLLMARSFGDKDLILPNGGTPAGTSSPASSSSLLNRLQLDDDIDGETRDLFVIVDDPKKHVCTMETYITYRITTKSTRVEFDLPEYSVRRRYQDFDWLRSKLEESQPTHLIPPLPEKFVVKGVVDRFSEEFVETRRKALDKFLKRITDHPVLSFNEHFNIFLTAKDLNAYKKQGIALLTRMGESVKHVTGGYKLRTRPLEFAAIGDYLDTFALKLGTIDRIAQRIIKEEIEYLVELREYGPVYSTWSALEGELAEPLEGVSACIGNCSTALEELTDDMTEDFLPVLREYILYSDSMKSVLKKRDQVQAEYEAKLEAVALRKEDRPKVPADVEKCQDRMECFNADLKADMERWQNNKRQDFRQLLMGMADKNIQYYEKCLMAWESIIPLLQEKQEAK
UniProt Q15506: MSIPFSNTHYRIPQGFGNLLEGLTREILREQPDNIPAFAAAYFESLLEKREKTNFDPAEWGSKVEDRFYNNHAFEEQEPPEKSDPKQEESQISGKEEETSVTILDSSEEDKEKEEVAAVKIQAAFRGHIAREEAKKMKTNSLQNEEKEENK
UniProt Q9BV90: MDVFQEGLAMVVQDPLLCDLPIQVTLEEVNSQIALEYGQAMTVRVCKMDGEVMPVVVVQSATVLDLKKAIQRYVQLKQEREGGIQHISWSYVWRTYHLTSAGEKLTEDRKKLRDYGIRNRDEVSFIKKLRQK
UniProt Q13487, whole entry, looked up: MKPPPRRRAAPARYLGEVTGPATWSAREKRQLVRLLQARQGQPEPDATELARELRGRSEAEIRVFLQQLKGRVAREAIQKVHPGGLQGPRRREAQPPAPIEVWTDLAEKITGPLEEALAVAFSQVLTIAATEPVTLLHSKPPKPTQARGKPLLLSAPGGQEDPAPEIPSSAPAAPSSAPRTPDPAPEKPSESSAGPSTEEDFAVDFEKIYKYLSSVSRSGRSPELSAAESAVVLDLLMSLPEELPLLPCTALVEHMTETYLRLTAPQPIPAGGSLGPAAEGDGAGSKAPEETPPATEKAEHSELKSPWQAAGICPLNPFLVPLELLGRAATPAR
UniProt Q8WV41: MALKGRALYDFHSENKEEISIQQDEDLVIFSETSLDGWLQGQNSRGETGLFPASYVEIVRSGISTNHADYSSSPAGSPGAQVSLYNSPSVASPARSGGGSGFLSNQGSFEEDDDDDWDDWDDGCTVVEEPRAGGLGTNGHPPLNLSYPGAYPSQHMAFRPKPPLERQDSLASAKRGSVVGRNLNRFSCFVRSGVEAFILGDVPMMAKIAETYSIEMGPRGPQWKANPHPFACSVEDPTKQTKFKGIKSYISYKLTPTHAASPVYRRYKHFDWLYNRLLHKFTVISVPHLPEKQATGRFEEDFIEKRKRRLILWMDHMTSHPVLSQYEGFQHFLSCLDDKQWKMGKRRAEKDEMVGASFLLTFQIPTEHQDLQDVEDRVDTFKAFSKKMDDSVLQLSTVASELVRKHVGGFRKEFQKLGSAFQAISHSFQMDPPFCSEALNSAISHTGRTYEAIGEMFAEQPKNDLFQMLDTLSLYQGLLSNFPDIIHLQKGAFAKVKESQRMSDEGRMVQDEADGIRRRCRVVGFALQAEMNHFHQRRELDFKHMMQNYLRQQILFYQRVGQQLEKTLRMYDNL
UniProt P52788: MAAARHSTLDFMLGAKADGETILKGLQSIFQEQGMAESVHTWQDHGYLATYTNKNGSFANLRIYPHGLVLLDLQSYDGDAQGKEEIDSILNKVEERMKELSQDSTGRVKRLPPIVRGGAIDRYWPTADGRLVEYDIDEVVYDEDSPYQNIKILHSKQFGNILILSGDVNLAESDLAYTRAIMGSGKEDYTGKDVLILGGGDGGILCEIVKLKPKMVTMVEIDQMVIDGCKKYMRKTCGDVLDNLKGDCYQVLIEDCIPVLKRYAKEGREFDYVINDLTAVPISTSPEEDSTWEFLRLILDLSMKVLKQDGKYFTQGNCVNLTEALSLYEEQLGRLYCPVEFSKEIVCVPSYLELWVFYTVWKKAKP
UniProt Q9Y343: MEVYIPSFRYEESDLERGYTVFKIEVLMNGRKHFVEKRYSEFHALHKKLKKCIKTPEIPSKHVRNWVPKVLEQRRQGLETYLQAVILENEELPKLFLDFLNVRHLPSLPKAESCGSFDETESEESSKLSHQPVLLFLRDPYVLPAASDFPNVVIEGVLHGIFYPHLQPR
UniProt Q07617: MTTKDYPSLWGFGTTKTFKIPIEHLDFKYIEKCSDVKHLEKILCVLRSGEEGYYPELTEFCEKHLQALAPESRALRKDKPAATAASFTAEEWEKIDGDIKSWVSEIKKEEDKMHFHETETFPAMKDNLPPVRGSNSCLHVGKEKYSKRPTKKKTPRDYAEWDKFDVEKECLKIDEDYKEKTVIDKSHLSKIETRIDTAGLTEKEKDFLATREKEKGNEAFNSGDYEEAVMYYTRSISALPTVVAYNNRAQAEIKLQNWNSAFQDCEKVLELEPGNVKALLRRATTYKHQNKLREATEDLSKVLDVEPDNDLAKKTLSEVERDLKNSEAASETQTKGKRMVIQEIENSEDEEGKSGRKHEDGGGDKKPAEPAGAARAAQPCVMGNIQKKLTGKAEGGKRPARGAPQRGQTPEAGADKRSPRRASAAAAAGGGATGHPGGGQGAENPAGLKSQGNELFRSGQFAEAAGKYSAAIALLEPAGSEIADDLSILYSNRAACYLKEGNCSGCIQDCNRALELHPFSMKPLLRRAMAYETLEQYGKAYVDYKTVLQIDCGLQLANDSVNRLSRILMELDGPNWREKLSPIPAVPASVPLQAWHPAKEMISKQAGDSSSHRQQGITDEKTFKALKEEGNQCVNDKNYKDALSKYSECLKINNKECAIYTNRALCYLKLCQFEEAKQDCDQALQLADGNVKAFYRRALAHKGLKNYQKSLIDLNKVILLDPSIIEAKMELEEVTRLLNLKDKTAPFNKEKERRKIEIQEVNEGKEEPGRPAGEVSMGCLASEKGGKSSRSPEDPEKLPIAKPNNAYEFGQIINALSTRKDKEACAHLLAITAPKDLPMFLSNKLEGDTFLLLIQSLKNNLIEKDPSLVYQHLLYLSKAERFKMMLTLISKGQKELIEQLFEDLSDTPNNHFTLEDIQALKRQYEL
UniProt O95149, whole entry, looked up: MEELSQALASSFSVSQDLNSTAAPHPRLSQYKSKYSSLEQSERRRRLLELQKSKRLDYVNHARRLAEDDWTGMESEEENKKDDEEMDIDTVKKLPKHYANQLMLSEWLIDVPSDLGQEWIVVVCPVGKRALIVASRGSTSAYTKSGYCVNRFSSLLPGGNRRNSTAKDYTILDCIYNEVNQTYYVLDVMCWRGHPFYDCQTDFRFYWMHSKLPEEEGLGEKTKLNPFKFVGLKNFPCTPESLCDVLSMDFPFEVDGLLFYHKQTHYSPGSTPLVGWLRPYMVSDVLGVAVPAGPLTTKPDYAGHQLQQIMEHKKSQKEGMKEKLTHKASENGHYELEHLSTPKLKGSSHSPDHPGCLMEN
UniProt Q92966: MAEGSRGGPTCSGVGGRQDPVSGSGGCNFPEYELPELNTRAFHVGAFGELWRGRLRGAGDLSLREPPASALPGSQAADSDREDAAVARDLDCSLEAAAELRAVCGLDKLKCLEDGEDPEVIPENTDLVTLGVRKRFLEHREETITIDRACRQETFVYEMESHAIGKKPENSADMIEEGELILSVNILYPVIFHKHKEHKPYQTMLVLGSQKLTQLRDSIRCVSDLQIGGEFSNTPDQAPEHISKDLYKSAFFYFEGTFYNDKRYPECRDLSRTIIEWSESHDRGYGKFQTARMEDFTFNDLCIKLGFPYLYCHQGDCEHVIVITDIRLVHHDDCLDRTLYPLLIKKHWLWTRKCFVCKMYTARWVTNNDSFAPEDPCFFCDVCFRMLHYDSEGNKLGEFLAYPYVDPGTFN
UniProt Q9H4I9: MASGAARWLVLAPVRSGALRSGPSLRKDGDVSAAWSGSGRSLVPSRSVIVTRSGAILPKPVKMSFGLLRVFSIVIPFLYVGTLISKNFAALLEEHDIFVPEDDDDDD

Experiments:
Assay in all cases: log2 fold change, soluble protein after heating vs DMSO (PISA); higher = thermal stabilisation; K562 lysate, 10 uM; active = over 0.2 and 3.5 SD of the protein, either way, in both replicates (recomputed)
ibrutinib = compound: C=CC(=O)N1CCC[C@@H](n2nc(-c3ccc(Oc4ccccc4)cc3)c3c(N)ncnc32)C1 [ibrutinib]
In short: (§1)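 Pellets of K562 cells were dounce-homogenised in PBS pH 7.4 with 1 mM MgCl2, and the crude extract was held at 1 mg/mL protein for a 30 min treatment with 10 μM compound. Aliquots were heated for 3 min over 48°C-58°C and pooled before NP-40 was added to 0.5% at 4°C. The supernatant from 21,000xg for 90 min was quantified by TMTpro 16plex LC-MS/MS with channel sums equalised. Values are reported from duplicates as log-two fold change in thermal stability relative to solvent controls.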

[1] = compound: CC(=O)c1cnc2ccc(-c3cc(Cl)c(O)c(Cl)c3)nc2c1N[C@H]1CC[C@H](CN(C)C)CC1
In short: as §1

ralimetinib = compound: CC(C)(C)Cn1c(N)nc2ccc(-c3[nH]c(C(C)(C)C)nc3-c3ccc(F)cc3)nc21 [ralimetinib]
In short: as §1

[2] = compound: CC(C)(O)CC(=O)NCCn1ccc2ncnc(Nc3ccc(Oc4cccc(C(F)(F)F)c4)c(Cl)c3)c21
In short: as §1

[3] = compound: CC(C)C1=C2N=C(C=C(N2N=C1)NCC3=CC=CC=C3)NCCCCCCN
In short: as §1

[4] = compound: CC1=C(C(CC(=O)N1)C2=CC=C(C=C2)C(F)(F)F)C(=O)NC3=C(C=C4C(=C3)C=NN4)F
In short: as §1

[5] = compound: CC1=C(C2=C(C=C1)C(=O)C3=CC=CC=C3N2CCCN)C
In short: as §1

[6] = compound: CC1=C(C=C(C=C1)NC(=O)C2=CC(=CC=C2)C(C)(C)C#N)NC3=CC4=C(C=C3)N=CN(C4=O)C
In short: as §1

[7] = compound: CC1=C(C=C(C=C1)NC(=O)C2=CC(=CC=C2)N(C)C)NC(=O)C3=CC=C(C=C3)O
In short: as §1

[8] = compound: CC1=CC=C(C=C1)SC2=C3C=C(SC3=CN=C2)C(=O)N
In short: as §1

Measured: log2 fold change

SPAG7 (UniProt O75391)
inactive: ibrutinib -0.001 | [1] -0.028 | ralimetinib 0 | [2] -0.039 | [3] -0.015 | [4] -0.013 | [5] -0.011 | [6] 0.011 | [7] -0.006 | [8] -0.001

SNX17 (UniProt Q15036)
inactive: ibrutinib -0.05 | [1] -0.003 | ralimetinib -0.006 | [2] -0.057 | [3] -0.027 | [4] -0.044 | [5] -0.064 | [6] 0.008 | [7] -0.02 | [8] -0.001

SP1 (UniProt P08047)
inactive: ibrutinib 0.04 | [1] 0.017 | ralimetinib -0.018 | [2] -0.049 | [3] -0.103 | [4] -0.013 | [5] 0.061 | [6] 0.22 | [7] 0.017 | [8] -0.027

SMCHD1 (UniProt A6NHR9)
inactive: ibrutinib -0.02 | [1] 0.002 | ralimetinib 0.051 | [2] 0.005 | [3] 0.029 | [4] 0.024 | [5] -0.042 | [6] 0.031 | [7] 0.037 | [8] 0.01

SMC5 (UniProt Q8IY18)
inactive: ibrutinib -0.012 | [1] -0.011 | ralimetinib 0.022 | [2] -0.005 | [3] 0 | [4] -0.008 | [5] -0.022 | [6] 0.013 | [7] 0.024 | [8] 0.019

SOCS2 (UniProt O14508)
inactive: ibrutinib -0.051 | [1] -0.018 | ralimetinib -0.002 | [2] -0.042 | [3] -0.017 | [4] -0.059 | [5] 0.001 | [6] -0.012 | [7] 0.036 | [8] -0.049

SNAP91 (UniProt O60641)
inactive: ibrutinib -0.098 | [1] 0.04 | ralimetinib -0.014 | [2] -0.053 | [3] -0.02 | [4] -0.009 | [5] -0.069 | [6] 0.023 | [7] -0.015 | [8] -0.023

SNX30 (UniProt Q5VWJ9)
inactive: ibrutinib -0.064 | [1] 0.054 | ralimetinib 0.125 | [2] -0.046 | [3] -0.056 | [4] 0.019 | [5] 0.025 | [6] -0.073 | [7] 0.036 | [8] -0.043

SNRPB isoform 3 (UniProt P14678)
inactive: ibrutinib -0.038 | [1] 0.032 | ralimetinib 0.015 | [2] 0.004 | [3] -0.012 | [4] 0.03 | [5] -0.007 | [6] -0.056 | [7] -0.058 | [8] 0.029

SNAPC4 (UniProt Q5SXM2)
inactive: ibrutinib 0.06 | [4] 0.039

SOGA1 isoform 2 (UniProt O94964)
inactive: ibrutinib -0.055 | ralimetinib 0.022 | [2] 0.014 | [3] 0.038 | [4] 0.029 | [5] -0.028 | [6] 0.027 | [7] 0.007

SP4 (UniProt Q02446)
inactive: ibrutinib 0.163 | [1] 0.006 | ralimetinib -0.053 | [2] -0.196 | [3] 0.073 | [5] 0 | [6] -0.104 | [7] -0.018 | [8] 0.086

SPA17 (UniProt Q15506)
inactive: ibrutinib 0.056 | [1] 0.028 | ralimetinib 0.006 | [2] -0.098 | [5] 0.051 | [6] -0.053 | [7] 0.026 | [8] -0.058

SMARCC2 isoform 3 (UniProt Q8TAQ2)
inactive: ibrutinib 0.136 | [1] -0.036 | ralimetinib 0.024 | [2] -0.043 | [4] -0.052 | [5] 0.027 | [6] -0.052 | [7] -0.084 | [8] -0.108

SORBS3 (UniProt O60504)
inactive: ibrutinib -0.005 | [1] 0.067 | ralimetinib 0.099 | [2] -0.113 | [3] -0.035 | [5] -0.158 | [6] 0.046 | [7] -0.05 | [8] -0.114

SOD3 (UniProt P08294)
inactive: ibrutinib -0.009 | [1] 0.148 | [8] -0.025

SNRNP25 (UniProt Q9BV90)
inactive: ibrutinib 0.014 | ralimetinib -0.084 | [2] 0.016 | [4] -0.098 | [7] -0.07

SOX7 isoform 2 (UniProt Q9BT81)
inactive: ibrutinib 0.101 | ralimetinib -0.057 | [2] -0.069 | [3] 0.013 | [4] 0.108 | [7] -0.094

SPAG9 isoform 4 (UniProt O60271)
inactive: ibrutinib -0.003 | ralimetinib 0.03 | [2] -0.048 | [6] 0.046 | [7] 0.009

SNAPC2 (UniProt Q13487)
inactive: ibrutinib 0.092 | ralimetinib 0.002 | [2] -0.029 | [3] -0.032 | [4] -0.073 | [5] -0.071 | [6] -0.008 | [7] 0.011

SNX33 (UniProt Q8WV41)
inactive: ibrutinib 0.101 | ralimetinib -0.005 | [2] -0.168 | [4] -0.026 | [5] 0.006 | [6] 0.022 | [7] 0.135

SMS (UniProt P52788)
inactive: ibrutinib -0.008 | [1] 0.008 | ralimetinib 0.002 | [2] 0.002 | [3] 0.009 | [4] -0.033 | [5] 0.022 | [6] 0.014 | [7] 0.001 | [8] -0.005

SMPD4 isoform 4 (UniProt Q9NXE4)
inactive: ibrutinib 0.026 | ralimetinib -0.047 | [2] 0.641 | [4] 0.003 | [7] 0.068

SNX24 (UniProt Q9Y343)
inactive: ibrutinib -0.008 | ralimetinib 0.048 | [2] 0.054 | [3] -0.185 | [4] -0.037 | [5] 0.008 | [6] -0.035 | [7] 0.008

SPAG1 (UniProt Q07617)
inactive: ibrutinib 0.034 | [1] 0.282 | ralimetinib -0.017 | [2] -0.17 | [6] 0.15 | [7] 0.079 | [8] -0.198

SNUPN (UniProt O95149)
inactive: ibrutinib -0.072 | [1] 0.001 | ralimetinib -0.008 | [2] -0.068 | [3] -0.116 | [4] -0.065 | [6] 0.001 | [7] -0.036 | [8] 0.027

SOX6 (UniProt P35712)
inactive: ibrutinib 0.042 | ralimetinib 0.002 | [2] -0.002 | [3] 0.338 | [4] 0.171 | [5] 0.035 | [6] 0.147 | [7] 0.01

SNX6, A0A0A0MRI2
inactive: ibrutinib -0.034 | [1] 0 | ralimetinib -0.005 | [2] -0.03 | [3] -0.011 | [4] -0.032 | [5] -0.001 | [6] 0.018 | [7] 0.039 | [8] -0.004

SMU1 isoform 2 (UniProt Q2TAY7)
inactive: ibrutinib 0.008 | [1] 0.012 | ralimetinib -0.054 | [2] -0.099 | [3] -0.138 | [4] -0.183 | [7] -0.082 | [8] -0.05

SNAPC3 (UniProt Q92966)
inactive: ibrutinib -0.213 | [3] 0.084 | [4] 0.011 | [5] -0.048 | [6] 0.028

SMIM4 (UniProt Q8WVI0)
inactive: ibrutinib 0.06 | [1] -0.29 | ralimetinib 0.084 | [2] 0.032 | [4] -0.044 | [6] 0.023 | [7] 0.004 | [8] -0.024

Two entries picked at random from those above:
SNAPC3 (UniProt Q92966)
inactive: ibrutinib -0.213 | [3] 0.084 | [4] 0.011 | [5] -0.048 | [6] 0.028

SMU1 isoform 2 (UniProt Q2TAY7)
inactive: ibrutinib 0.008 | [1] 0.012 | ralimetinib -0.054 | [2] -0.099 | [3] -0.138 | [4] -0.183 | [7] -0.082 | [8] -0.05

Additional records:

SMDT1 (UniProt Q9H4I9)
inactive: ibrutinib -0.001 | [1] 0.076 | ralimetinib 0.058 | [2] 0.066 | [3] -0.087 | [5] -0.122 | [7] 0.039 | [8] -0.033

SOX5 (UniProt P35711)
inactive: ibrutinib -0.064 | [1] 0.14 | ralimetinib -0.049 | [2] 0.02 | [3] 0.091 | [5] 0.053 | [6] 0.036 | [7] 0.088 | [8] -0.105
